The experiment addresses T1, UniProt Q8TBA6 and related entries.
T1 sequence (whole entry): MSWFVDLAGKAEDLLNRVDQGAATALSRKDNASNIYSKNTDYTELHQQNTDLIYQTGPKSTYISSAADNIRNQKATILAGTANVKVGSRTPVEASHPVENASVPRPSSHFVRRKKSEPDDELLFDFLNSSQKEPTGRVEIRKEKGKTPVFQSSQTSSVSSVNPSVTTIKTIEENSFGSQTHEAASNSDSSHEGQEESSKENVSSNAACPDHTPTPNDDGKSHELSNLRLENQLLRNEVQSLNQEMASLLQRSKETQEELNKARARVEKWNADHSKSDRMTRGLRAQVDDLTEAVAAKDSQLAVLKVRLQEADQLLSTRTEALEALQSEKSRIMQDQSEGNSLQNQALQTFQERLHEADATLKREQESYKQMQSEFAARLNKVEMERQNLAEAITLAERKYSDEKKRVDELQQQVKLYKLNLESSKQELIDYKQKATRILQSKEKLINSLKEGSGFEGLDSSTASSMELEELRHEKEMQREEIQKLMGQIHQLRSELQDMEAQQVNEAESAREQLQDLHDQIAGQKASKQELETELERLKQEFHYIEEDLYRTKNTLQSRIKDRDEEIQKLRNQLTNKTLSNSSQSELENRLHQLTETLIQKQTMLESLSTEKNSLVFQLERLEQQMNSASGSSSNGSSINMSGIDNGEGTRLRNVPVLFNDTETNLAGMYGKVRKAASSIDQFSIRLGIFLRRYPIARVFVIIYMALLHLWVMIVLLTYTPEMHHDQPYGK
Put plainly: NP40-soluble protein abundance relative to vehicle (solubility fold change) (ratio); higher = more soluble protein in presence of GTP. Here is the method: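 Solubility proteome profiling in Jurkat crude lysate. Lysate was treated with Mg-GTP (0.1-10 mM) for 10 min at room temperature and 3 min at 37 °C, then solubilised with 0.8% NP40 and benzonase, followed by ultracentrifugation. Proteins were quantified by TMT10 LC-MS/MS; the value is the NP40-soluble abundance relative to the NP40-processed vehicle, from 3 independent experiments.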

± gives the standard deviation of the averaged measurements. Some of the results follow.

NP40-soluble protein abundance data for one molecule are collected here from the supplement of paper PMC6411743.

Consider `Nc1nc2c(ncn2[C@@H]2O[C@H](COP(=O)(O)OP(=O)(O)OP(=O)(O)O)[C@@H](O)[C@H]2O)c(=O)[nH]1` [guanosine triphosphate], for which the NP40-soluble protein abundance (concentration: 0.1mM) stood at 0.947 ± 0.018; the NP40-soluble protein abundance (concentration: 0.5mM) came to 0.964 ± 0.037; the NP40-soluble protein abundance (concentration: 1mM) turned out to be 0.961 ± 0.034; the NP40-soluble protein abundance (concentration: 2mM) worked out at 0.942 ± 0.05; the NP40-soluble protein abundance (concentration: 4mM) turned out to be 0.926 ± 0.053; the NP40-soluble protein abundance (concentration: 6mM) came out at 0.948 ± 0.051. The NP40-soluble protein abundance (concentration: 8mM) stood at 0.944 ± 0.03 and the NP40-soluble protein abundance (concentration: 10mM) worked out at 0.978 ± 0.055.
